No constants are given. Whether binding was seen depends on the method and setting. Binding seen in cells or lysates may run through a third protein. Some binding calls cover weakened binding; strength is not graded here.
T1: mouse tenascin-R (TN-R) of mouse brain membrane fractions (mouse) (UniProt Q8BYI9)
T1 sequence: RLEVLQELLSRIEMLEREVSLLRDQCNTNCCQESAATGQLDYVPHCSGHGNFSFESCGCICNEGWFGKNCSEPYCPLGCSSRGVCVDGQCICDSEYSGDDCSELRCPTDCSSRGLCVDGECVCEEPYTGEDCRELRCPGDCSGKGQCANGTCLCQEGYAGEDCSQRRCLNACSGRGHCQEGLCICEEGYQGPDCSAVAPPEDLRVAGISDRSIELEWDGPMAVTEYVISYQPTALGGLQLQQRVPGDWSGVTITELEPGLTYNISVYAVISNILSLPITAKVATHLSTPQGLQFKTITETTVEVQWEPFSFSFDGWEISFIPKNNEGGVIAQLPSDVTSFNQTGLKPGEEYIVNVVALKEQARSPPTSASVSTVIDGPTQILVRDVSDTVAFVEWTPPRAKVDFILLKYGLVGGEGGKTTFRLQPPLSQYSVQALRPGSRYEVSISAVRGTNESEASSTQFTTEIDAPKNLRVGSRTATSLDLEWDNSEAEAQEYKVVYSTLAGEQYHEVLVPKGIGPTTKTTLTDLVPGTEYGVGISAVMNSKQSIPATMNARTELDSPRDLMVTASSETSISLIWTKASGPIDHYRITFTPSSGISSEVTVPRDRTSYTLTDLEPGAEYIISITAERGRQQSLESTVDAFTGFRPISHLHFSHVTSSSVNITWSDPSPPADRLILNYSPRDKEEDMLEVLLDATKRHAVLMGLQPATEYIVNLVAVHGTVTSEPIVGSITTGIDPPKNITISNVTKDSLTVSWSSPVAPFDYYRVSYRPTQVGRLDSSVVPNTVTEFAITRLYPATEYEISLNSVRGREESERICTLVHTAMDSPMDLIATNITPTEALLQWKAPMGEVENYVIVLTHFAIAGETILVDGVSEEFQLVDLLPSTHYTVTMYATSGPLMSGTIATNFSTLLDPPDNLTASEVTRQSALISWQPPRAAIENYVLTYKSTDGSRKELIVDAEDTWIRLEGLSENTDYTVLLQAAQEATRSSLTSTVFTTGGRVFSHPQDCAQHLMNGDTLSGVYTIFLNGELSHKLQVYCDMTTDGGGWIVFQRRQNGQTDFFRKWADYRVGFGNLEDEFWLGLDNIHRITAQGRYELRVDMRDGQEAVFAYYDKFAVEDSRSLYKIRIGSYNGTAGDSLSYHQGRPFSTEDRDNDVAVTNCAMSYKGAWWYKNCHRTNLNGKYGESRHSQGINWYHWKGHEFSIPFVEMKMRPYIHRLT

Amino acid sequences for entries named in this document (tags omitted). A change or cut given only in a name is not applied to a line headed by its entry.
UniProt B9EKR1: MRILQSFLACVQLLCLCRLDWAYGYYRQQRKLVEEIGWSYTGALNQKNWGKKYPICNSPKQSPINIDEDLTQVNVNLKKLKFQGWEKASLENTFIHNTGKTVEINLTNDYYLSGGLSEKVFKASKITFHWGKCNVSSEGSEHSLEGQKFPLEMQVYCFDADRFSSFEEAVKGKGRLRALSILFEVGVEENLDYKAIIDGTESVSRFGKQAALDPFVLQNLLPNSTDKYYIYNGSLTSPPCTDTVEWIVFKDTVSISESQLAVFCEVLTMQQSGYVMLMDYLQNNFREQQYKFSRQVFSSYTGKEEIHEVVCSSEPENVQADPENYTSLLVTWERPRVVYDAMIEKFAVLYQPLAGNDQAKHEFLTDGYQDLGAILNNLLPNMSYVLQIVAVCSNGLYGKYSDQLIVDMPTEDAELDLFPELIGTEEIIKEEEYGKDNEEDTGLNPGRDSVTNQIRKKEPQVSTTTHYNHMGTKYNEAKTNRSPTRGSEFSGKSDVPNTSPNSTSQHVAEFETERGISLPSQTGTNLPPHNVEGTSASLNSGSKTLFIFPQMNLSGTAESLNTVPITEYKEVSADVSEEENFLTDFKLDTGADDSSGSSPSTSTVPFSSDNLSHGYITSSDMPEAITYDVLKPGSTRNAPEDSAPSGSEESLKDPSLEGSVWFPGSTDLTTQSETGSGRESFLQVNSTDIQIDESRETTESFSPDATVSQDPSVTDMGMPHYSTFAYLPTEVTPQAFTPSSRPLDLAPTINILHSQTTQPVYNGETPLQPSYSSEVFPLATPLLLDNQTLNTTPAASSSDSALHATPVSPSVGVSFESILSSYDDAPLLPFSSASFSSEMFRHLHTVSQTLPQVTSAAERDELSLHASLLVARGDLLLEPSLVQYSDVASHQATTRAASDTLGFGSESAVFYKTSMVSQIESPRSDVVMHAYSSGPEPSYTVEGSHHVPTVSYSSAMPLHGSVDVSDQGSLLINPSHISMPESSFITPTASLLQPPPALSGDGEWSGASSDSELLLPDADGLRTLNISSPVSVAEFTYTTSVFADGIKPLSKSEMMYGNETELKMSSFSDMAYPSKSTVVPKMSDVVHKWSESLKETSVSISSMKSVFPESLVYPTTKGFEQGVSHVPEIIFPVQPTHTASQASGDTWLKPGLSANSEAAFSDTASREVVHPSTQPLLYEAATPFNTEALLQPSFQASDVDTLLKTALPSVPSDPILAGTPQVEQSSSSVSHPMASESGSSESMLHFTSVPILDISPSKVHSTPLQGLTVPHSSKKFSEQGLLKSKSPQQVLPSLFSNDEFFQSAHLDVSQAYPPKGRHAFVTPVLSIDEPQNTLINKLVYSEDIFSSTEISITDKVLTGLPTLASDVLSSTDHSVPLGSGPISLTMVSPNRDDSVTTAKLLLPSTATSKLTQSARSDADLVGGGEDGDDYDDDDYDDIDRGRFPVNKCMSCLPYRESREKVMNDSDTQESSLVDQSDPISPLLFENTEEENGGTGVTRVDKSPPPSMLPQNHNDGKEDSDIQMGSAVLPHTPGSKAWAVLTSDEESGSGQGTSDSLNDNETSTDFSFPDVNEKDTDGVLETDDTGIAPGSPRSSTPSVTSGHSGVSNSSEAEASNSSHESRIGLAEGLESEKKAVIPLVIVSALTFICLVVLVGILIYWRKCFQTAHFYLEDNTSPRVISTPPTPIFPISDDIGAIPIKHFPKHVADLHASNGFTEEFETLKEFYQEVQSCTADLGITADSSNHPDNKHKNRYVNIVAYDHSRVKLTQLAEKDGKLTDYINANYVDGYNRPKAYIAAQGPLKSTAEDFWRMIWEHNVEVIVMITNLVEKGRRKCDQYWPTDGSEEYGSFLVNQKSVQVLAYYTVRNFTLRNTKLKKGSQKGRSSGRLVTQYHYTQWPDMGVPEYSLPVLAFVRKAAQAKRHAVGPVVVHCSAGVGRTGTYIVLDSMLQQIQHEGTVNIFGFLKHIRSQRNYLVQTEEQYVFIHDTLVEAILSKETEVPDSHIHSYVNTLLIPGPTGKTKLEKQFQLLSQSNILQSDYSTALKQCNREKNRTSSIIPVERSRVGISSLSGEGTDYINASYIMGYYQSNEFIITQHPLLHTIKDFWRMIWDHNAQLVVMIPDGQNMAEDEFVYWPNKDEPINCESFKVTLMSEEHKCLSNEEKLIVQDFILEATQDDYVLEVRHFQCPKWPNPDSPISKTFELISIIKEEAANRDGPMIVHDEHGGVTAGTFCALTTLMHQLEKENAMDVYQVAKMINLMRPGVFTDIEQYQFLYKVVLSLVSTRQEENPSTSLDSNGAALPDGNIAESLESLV


Assays:
[1] = target: mouse PTP-ζ (PTP-β/ζ) of mouse brain membrane fractions (mouse) (UniProt B9EKR1); test: co-immunoprecipitation of mIL-34 with PTP-ζ by anti-PTP-ζ 3F8 from mouse brain membrane fraction, western blot for IL-34 [panel C]
[2] = target: mouse PTP-ζ (PTP-β/ζ) of mouse brain membrane fractions (mouse) (UniProt B9EKR1); test: pull-down from membrane lysates
[3] = target: mouse PTP-ζ (PTP-β/ζ) of mouse brain membrane fractions (mouse) (UniProt B9EKR1); test: affinity purification from mouse brain membrane lysate, LC-MS/MS
[4] = target: mouse PTP-ζ (PTP-β/ζ) of mouse brain membrane fractions (mouse) (UniProt B9EKR1); test: mIL-34/anti-mIL-34 bead or biotinylated mIL-34 pull-down from mouse brain membrane lysate, silver stain, MS, western blot
[5] = target: T1, mouse tenascin-R (TN-R) of mouse brain membrane fractions (mouse); test: as above
[6] = target: mouse PTP-ζ (PTP-β/ζ) of mouse brain membrane fractions (mouse) (UniProt B9EKR1); test: pull-down / immunoprecipitation from OG-solubilized mouse brain membrane fraction, SDS-PAGE, silver stain and western blot [panel A]
[7] = target: T1, mouse tenascin-R (TN-R) of mouse brain membrane fractions (mouse); test: pull-down / immunoprecipitation from OG-solubilized mouse brain membrane fraction, western blot for TN-R (co-precipitation from a lysate, may be indirect) [panel A]
[8] = target: mouse PTP-ζ (PTP-β/ζ) of mouse brain membrane fractions (mouse) (UniProt B9EKR1); test: reciprocal co-immunoprecipitation with anti-PTP-ζ 3F8 from mouse brain membrane lysate, western blot
[9] = target: T1, mouse tenascin-R (TN-R) of mouse brain membrane fractions (mouse); test: as above
[10] = target: mouse PTP-ζ (PTP-β/ζ) of mouse brain membrane fractions (mouse) (UniProt B9EKR1); test: co-immunoprecipitation with anti-PTP-ζ 3F8 from mouse brain membrane lysate with or without mIL-34, western blot
[11] = target: mouse PTP-ζ (PTP-β/ζ) of mouse brain membrane fractions (mouse) (UniProt B9EKR1); test: co-immunoprecipitation of TN-R with PTP-ζ by anti-PTP-ζ 3F8 from mouse brain membrane fraction, western blot for TN-R [panel C]

| binding [1] | binding [2] | binding [3] | binding [4] | binding [5] | binding [6] | binding [7] | binding [8] | binding [9] | binding [10] | binding [11] | Binder |
| --- | --- | --- | --- | --- | --- | --- | --- | --- | --- | --- | --- |
| binds | binds | binds | binds | binds | binds | binds | binds | binds |  |  | mouse IL-34 (interleukin-34) (ligand, UniProt Q8R1R4 21-235, looked up, biotinylated with EZ-Link Sulfo-NHS-LC-LC-Biotin in the neutravidin pull-down) NENLEIWTLTQDKECDLTGYLRGKLQYKNRLQYMKHYFPINYRIAVPYEGVLRVANITRLQKAHVSERELRYLWVLVSLNATESVMDVLLEGHPSWKYLQEVQTLLENVQRSLMDVEIGPHVEAVLSLLSTPGLSLKLVRPKALLDNCFRVMELLYCSCCKQSPILKWQDCELPRLHPHSPGSLMQCTATNVYPLSRQTPTSLPGSPSSSHGSLP |
|  |  |  |  |  |  |  |  |  | binds | binds | mouse tenascin-R (TN-R) of mouse brain membrane fractions (protein) RLEVLQELLSRIEMLEREVSLLRDQCNTNCCQESAATGQLDYVPHCSGHGNFSFESCGCICNEGWFGKNCSEPYCPLGCSSRGVCVDGQCICDSEYSGDDCSELRCPTDCSSRGLCVDGECVCEEPYTGEDCRELRCPGDCSGKGQCANGTCLCQEGYAGEDCSQRRCLNACSGRGHCQEGLCICEEGYQGPDCSAVAPPEDLRVAGISDRSIELEWDGPMAVTEYVISYQPTALGGLQLQQRVPGDWSGVTITELEPGLTYNISVYAVISNILSLPITAKVATHLSTPQGLQFKTITETTVEVQWEPFSFSFDGWEISFIPKNNEGGVIAQLPSDVTSFNQTGLKPGEEYIVNVVALKEQARSPPTSASVSTVIDGPTQILVRDVSDTVAFVEWTPPRAKVDFILLKYGLVGGEGGKTTFRLQPPLSQYSVQALRPGSRYEVSISAVRGTNESEASSTQFTTEIDAPKNLRVGSRTATSLDLEWDNSEAEAQEYKVVYSTLAGEQYHEVLVPKGIGPTTKTTLTDLVPGTEYGVGISAVMNSKQSIPATMNARTELDSPRDLMVTASSETSISLIWTKASGPIDHYRITFTPSSGISSEVTVPRDRTSYTLTDLEPGAEYIISITAERGRQQSLESTVDAFTGFRPISHLHFSHVTSSSVNITWSDPSPPADRLILNYSPRDKEEDMLEVLLDATKRHAVLMGLQPATEYIVNLVAVHGTVTSEPIVGSITTGIDPPKNITISNVTKDSLTVSWSSPVAPFDYYRVSYRPTQVGRLDSSVVPNTVTEFAITRLYPATEYEISLNSVRGREESERICTLVHTAMDSPMDLIATNITPTEALLQWKAPMGEVENYVIVLTHFAIAGETILVDGVSEEFQLVDLLPSTHYTVTMYATSGPLMSGTIATNFSTLLDPPDNLTASEVTRQSALISWQPPRAAIENYVLTYKSTDGSRKELIVDAEDTWIRLEGLSENTDYTVLLQAAQEATRSSLTSTVFTTGGRVFSHPQDCAQHLMNGDTLSGVYTIFLNGELSHKLQVYCDMTTDGGGWIVFQRRQNGQTDFFRKWADYRVGFGNLEDEFWLGLDNIHRITAQGRYELRVDMRDGQEAVFAYYDKFAVEDSRSLYKIRIGSYNGTAGDSLSYHQGRPFSTEDRDNDVAVTNCAMSYKGAWWYKNCHRTNLNGKYGESRHSQGINWYHWKGHEFSIPFVEMKMRPYIHRLT |

Source: patent US20160123962A1 (ALBERT EINSTEIN COLLEGE OF MEDICINE, published 2016)
